# Test results: the supplement of paper PMC4635364
# Counter-ions that a name gives are not always drawn. The list shows a part of the results. Single values are uncertain here, since repeats match poorly.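 Cells: ReNCell VM human fetal ventral-midbrain neural progenitors, differentiated mitogen-free. Blinded raters compared doublecortin-stained (early neurons) or tyrosine hydroxylase-stained (dopaminergic neurons) images with untreated wells, where 0 means no change. After repeats and both raters were averaged, compounds scoring 2 or above became hits for retesting.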 Where a SMILES comes first, the peptide text is derived from it. Bridges are numbered along the chain shown (N, C = ends). [ ]: non-standard residue; d: D form. The star is where a group is joined. Ileψ(thiazoline)Cys = CC[C@H](C)[C@H](N)C1=N[C@H](C(=O)*)CS1; dOrn = NCCC[C@@H](N)C(=O)O
# Assays:
# ReNCell VM [1] = assay: neuronal differentiation score (DCX+ cell fraction vs untreated, manual image score) (score (-3 to 3)); higher = more neuronal differentiation; settings: 2 uM, 2 weeks
# ReNCell VM [2] = assay: dopaminergic neuron differentiation score (TH+ cell fraction vs untreated, manual image score) (score (0 to 3)); higher = more TH+ dopaminergic neuron differentiation; settings: 2 uM, 4 weeks, BDNF 10 ng/ml + GDNF 10 ng/ml
compound,measurement,setting,value
CC1(C)S[C@@H]2[C@H](NC(=O)[C@H](NC(=O)N3CCNC3=O)c3ccccc3)C(=O)N2[C@H]1C(=O)O [Azlocillin sodium salt],neuronal differentiation score,ReNCell VM [1]; library: Prestwick,inactive: 0
same,dopaminergic neuron differentiation score,ReNCell VM [2]; library: Prestwick,inactive: 0
N[C@@H](Cc1cc(CP(=O)(O)O)cc(-c2ccccc2Cl)c1)C(=O)O,neuronal differentiation score,ReNCell VM [1]; library: Tocriscreen,inactive: 0
same,dopaminergic neuron differentiation score,ReNCell VM [2]; library: Tocriscreen,inactive: 0
Cc1c(N(C)CS(=O)(=O)O)c(=O)n(-c2ccccc2)n1C [Dipyrone],neuronal differentiation score,ReNCell VM [1]; library: Prestwick,inactive: 0
same,dopaminergic neuron differentiation score,ReNCell VM [2]; library: Prestwick,inactive: 0
CCCc1nn(C)c2c(=O)[nH]c(-c3cc(S(=O)(=O)N4CCN(C)CC4)ccc3OCC)nc12,neuronal differentiation score,ReNCell VM [1]; library: Spectrum,inactive: 1
same,dopaminergic neuron differentiation score,ReNCell VM [2]; library: Spectrum,inactive: 0
CC1=C(/C=C/C(C)=C/C=C/C(C)=C/C=C/C=C(C)/C=C/C=C(C)/C=C/C2=C(C)C(=O)CCC2(C)C)C(C)(C)CCC1=O [CANTHAXANTHIN (euglenanone)],neuronal differentiation score,ReNCell VM [1]; library: Spectrum,inactive: 0
same,dopaminergic neuron differentiation score,ReNCell VM [2]; library: Spectrum,inactive: 0
COc1cc(OC)c(C(C)=O)c(O)c1C,neuronal differentiation score,ReNCell VM [1]; library: Spectrum,inactive: 0
same,dopaminergic neuron differentiation score,ReNCell VM [2]; library: Spectrum,inactive: 1
C[N+](C)(C)CCO.[Br-] [Choline bromide],neuronal differentiation score,ReNCell VM [1]; library: LOPAC,inactive: -1
same,dopaminergic neuron differentiation score,ReNCell VM [2]; library: LOPAC,inactive: 0
O=C(O)CCNC(=O)c1ccccc1,neuronal differentiation score,ReNCell VM [1]; library: Spectrum,inactive: 0
same,dopaminergic neuron differentiation score,ReNCell VM [2]; library: Spectrum,inactive: 1
CCCC1C(=O)N2C(N(C)C)=Nc3ccc(C)cc3N2C1=O (stereo not drawn) [Azapropazone],neuronal differentiation score,ReNCell VM [1]; library: Prestwick,inactive: 0
same,dopaminergic neuron differentiation score,ReNCell VM [2]; library: Prestwick,inactive: 0
CCN1CCC[C@H]1CNC(=O)c1c(O)c(Cl)cc(Cl)c1OC [S(+)-Raclopride L-tartrate],neuronal differentiation score,ReNCell VM [1]; library: LOPAC,inactive: 0
same,dopaminergic neuron differentiation score,ReNCell VM [2]; library: LOPAC,inactive: 0
COc1ccc2cc3[n+](cc2c1OC)CCc1cc2c(cc1-3)OCO2,neuronal differentiation score,ReNCell VM [1]; library: Spectrum,inactive: 0
same,dopaminergic neuron differentiation score,ReNCell VM [2]; library: Spectrum,inactive: 0
CCN1CCCC1CNC(=O)c1cc(S(N)(=O)=O)ccc1OC (stereo not drawn),neuronal differentiation score,ReNCell VM [1]; library: Spectrum,inactive: 0
same,dopaminergic neuron differentiation score,ReNCell VM [2]; library: Spectrum,inactive: 0
Nc1ccc(S(=O)(=O)Nc2ccccn2)cc1,neuronal differentiation score,ReNCell VM [1]; library: Spectrum,inactive: 0
same,dopaminergic neuron differentiation score,ReNCell VM [2]; library: Spectrum,inactive: 1
O=C1C2=C(SC3OC(CO)C(O)C(O)C3O2)C(=O)c2ccccc21 (stereo not drawn),neuronal differentiation score,ReNCell VM [1]; library: Natural,inactive: 0
same,dopaminergic neuron differentiation score,ReNCell VM [2]; library: Natural,inactive: 0
CC(C)(Sc1cc(C(C)(C)C)c(O)c(C(C)(C)C)c1)Sc1cc(C(C)(C)C)c(O)c(C(C)(C)C)c1,neuronal differentiation score,ReNCell VM [1]; library: Spectrum,inactive: 0
same,dopaminergic neuron differentiation score,ReNCell VM [2]; library: Spectrum,inactive: 0
CC1=NN(c2ccc([N+](=O)[O-])cc2)C(=O)C1[N+](=O)[O-] (stereo not drawn) [picrolonic acid],neuronal differentiation score,ReNCell VM [1]; library: Natural,inactive: 0
same,dopaminergic neuron differentiation score,ReNCell VM [2]; library: Natural,inactive: 0
COc1ccc2c(c1OC)C(=O)O[C@@H]2[C@H]1c2c(cc3c(c2OC)OCO3)CCN1C,neuronal differentiation score,ReNCell VM [1]; library: Spectrum,inactive: 0
same,dopaminergic neuron differentiation score,ReNCell VM [2]; library: Spectrum,inactive: 0
CC(=O)OCC(=O)[C@@]1(O)CC[C@H]2[C@@H]3C[C@H](C)C4=CC(=O)C=C[C@]4(C)[C@H]3[C@@H](O)C[C@@]21C [6alpha-METHYLPREDNISOLONE ACETATE],neuronal differentiation score,ReNCell VM [1]; library: Spectrum,inactive: 0
same,dopaminergic neuron differentiation score,ReNCell VM [2]; library: Spectrum,inactive: 0
CC(C)Cc1ccc([C@H](C)C(=O)O)cc1,neuronal differentiation score,ReNCell VM [1]; library: Spectrum,inactive: 0
same,dopaminergic neuron differentiation score,ReNCell VM [2]; library: Spectrum,inactive: 0
CCN(CC)CCOC(=O)C(c1ccccc1)c1ccccc1 [Adiphenine hydrochloride],neuronal differentiation score,ReNCell VM [1]; library: Prestwick,inactive: 0
same,dopaminergic neuron differentiation score,ReNCell VM [2]; library: Prestwick,inactive: 0
CC(CN(C)C)C(C)(O)Cc1ccc(Cl)cc1 (stereo not drawn) [Clobutinol hydrochloride],neuronal differentiation score,ReNCell VM [1]; library: Prestwick,inactive: 0
same,dopaminergic neuron differentiation score,ReNCell VM [2]; library: Prestwick,inactive: 0
CC(C)(C)NCC(O)c1cc(O)cc(O)c1 (stereo not drawn),neuronal differentiation score,ReNCell VM [1]; library: Spectrum,inactive: 1
same,dopaminergic neuron differentiation score,ReNCell VM [2]; library: Spectrum,inactive: 0
CC[C@H](C)[C@H](N)C1=N[C@H](C(=O)N[C@@H](CC(C)C)C(=O)N[C@H](CCC(=O)O)C(=O)N[C@H](C(=O)N[C@H]2CCCCNC(=O)[C@H](CC(N)=O)NC(=O)[C@@H](CC(=O)O)NC(=O)[C@H](Cc3cnc[nH]3)NC(=O)[C@@H](Cc3ccccc3)NC(=O)[C@H]([C@@H](C)CC)NC(=O)[C@@H](CCCN)NC2=O)[C@@H](C)CC)CS1 [Bacitracin] ({Ileψ(thiazoline)Cys}-L[dE]IK[dOrn]I[dF]H[dD]N; lactam 4-C),neuronal differentiation score,ReNCell VM [1]; library: Prestwick,inactive: 0
same,dopaminergic neuron differentiation score,ReNCell VM [2]; library: Prestwick,inactive: 0
C[C@]12CC[C@@H]3c4ccc(O)cc4CC[C@H]3[C@@H]1CC[C@@H]2O,neuronal differentiation score,ReNCell VM [1]; library: Spectrum,inactive: 0
same,dopaminergic neuron differentiation score,ReNCell VM [2]; library: Spectrum,inactive: 0
Cc1ccc(-c2ncc(Cl)cc2-c2ccc(S(C)(=O)=O)cc2)cn1 [Etoricoxib],neuronal differentiation score,ReNCell VM [1]; library: Prestwick,inactive: 0
same,dopaminergic neuron differentiation score,ReNCell VM [2]; library: Prestwick,inactive: 0
C[C@@H]1O[C@@H]1P(=O)(O)O [Phosphomycin disodium],neuronal differentiation score,ReNCell VM [1]; library: LOPAC,inactive: 0
same,dopaminergic neuron differentiation score,ReNCell VM [2]; library: LOPAC,inactive: 0
Cc1ncc([N+](=O)[O-])n1CC(O)CCl (stereo not drawn) [Ornidazole],neuronal differentiation score,ReNCell VM [1]; library: Prestwick,inactive: 0
same,dopaminergic neuron differentiation score,ReNCell VM [2]; library: Prestwick,inactive: 0
CCCCCc1c2c(cc(O)c1C(=O)O)OC(=O)c1c(cc(OC)cc1C(=O)CCCC)O2,neuronal differentiation score,ReNCell VM [1]; library: Spectrum,inactive: 0
same,dopaminergic neuron differentiation score,ReNCell VM [2]; library: Spectrum,inactive: 0
O=C1c2c(O)ccc(O)c2C(=O)c2c(NCCNCCO)ccc(NCCNCCO)c21 [Mitoxantrone],neuronal differentiation score,ReNCell VM [1]; library: LOPAC,inactive: 0
same,dopaminergic neuron differentiation score,ReNCell VM [2]; library: LOPAC,inactive: 0

# Nothing new here: an excerpt of the list.
compound,measurement,setting,value
C[N+](C)(C)CCO.[Br-] [Choline bromide],neuronal differentiation score,ReNCell VM [1]; library: LOPAC,inactive: -1
same,dopaminergic neuron differentiation score,ReNCell VM [2]; library: LOPAC,inactive: 0
O=C(O)CCNC(=O)c1ccccc1,neuronal differentiation score,ReNCell VM [1]; library: Spectrum,inactive: 0
